# Assay results as given in the supplement of paper PMC10849652.
# Protein sequences, listed by entry. Tags and fused reporters are not part of them. Lines headed by an entry give the natural chain unless they say otherwise; changes in a name come on top.
# UniProt P29401: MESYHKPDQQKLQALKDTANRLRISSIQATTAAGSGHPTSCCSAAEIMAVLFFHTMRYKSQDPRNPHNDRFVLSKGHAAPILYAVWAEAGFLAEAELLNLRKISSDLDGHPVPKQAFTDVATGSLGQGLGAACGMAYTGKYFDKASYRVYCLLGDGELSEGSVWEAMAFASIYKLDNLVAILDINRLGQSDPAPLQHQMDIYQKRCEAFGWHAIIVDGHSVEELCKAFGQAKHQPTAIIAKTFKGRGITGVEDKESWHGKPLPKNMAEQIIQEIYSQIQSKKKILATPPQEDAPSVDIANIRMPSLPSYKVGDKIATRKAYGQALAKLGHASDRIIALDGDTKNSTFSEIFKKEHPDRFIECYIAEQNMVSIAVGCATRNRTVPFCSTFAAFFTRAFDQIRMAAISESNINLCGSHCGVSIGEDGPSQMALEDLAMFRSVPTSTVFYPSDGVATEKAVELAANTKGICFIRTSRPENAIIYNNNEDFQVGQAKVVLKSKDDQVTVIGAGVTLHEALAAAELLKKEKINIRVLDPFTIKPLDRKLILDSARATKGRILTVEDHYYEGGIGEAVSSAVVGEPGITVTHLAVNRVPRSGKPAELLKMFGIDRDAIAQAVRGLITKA
# UniProt Q5T1C6: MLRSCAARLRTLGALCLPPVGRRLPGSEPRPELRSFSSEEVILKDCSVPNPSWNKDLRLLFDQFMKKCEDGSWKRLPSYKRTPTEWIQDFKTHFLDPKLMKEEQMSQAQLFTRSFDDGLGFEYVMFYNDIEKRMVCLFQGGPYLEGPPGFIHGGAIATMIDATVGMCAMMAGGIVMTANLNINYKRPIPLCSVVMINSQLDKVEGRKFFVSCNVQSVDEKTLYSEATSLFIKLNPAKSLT
# UniProt Q96RS0: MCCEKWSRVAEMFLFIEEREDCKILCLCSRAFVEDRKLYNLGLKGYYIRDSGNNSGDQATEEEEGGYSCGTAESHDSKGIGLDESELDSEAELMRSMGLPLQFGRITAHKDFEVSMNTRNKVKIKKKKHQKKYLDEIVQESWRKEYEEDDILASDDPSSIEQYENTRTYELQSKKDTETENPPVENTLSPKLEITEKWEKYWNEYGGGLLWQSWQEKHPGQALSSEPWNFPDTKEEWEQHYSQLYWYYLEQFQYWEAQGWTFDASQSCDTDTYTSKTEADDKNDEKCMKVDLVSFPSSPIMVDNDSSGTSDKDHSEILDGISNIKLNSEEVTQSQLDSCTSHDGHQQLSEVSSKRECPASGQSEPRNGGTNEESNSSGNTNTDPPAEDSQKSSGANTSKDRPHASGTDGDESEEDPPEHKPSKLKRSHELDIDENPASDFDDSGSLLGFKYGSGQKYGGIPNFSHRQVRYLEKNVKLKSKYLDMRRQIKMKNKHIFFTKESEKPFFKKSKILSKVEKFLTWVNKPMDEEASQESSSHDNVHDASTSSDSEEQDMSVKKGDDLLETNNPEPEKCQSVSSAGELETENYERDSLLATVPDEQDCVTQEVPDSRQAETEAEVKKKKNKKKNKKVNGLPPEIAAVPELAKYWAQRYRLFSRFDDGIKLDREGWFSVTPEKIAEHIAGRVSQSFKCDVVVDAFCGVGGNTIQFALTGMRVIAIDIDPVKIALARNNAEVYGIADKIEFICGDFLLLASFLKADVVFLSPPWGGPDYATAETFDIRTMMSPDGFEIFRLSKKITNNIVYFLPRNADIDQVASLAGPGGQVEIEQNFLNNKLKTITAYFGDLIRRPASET
# UniProt Q3ZCQ8: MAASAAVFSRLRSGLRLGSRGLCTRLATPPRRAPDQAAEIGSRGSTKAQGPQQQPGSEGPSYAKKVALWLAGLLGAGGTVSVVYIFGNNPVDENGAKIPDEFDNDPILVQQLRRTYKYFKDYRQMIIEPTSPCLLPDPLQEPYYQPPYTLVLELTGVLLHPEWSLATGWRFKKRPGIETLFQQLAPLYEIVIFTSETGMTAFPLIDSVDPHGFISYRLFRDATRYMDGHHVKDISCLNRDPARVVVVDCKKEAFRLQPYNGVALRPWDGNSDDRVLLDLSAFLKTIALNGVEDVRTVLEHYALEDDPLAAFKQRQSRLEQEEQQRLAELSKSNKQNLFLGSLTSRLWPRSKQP
# UniProt Q8IYQ7: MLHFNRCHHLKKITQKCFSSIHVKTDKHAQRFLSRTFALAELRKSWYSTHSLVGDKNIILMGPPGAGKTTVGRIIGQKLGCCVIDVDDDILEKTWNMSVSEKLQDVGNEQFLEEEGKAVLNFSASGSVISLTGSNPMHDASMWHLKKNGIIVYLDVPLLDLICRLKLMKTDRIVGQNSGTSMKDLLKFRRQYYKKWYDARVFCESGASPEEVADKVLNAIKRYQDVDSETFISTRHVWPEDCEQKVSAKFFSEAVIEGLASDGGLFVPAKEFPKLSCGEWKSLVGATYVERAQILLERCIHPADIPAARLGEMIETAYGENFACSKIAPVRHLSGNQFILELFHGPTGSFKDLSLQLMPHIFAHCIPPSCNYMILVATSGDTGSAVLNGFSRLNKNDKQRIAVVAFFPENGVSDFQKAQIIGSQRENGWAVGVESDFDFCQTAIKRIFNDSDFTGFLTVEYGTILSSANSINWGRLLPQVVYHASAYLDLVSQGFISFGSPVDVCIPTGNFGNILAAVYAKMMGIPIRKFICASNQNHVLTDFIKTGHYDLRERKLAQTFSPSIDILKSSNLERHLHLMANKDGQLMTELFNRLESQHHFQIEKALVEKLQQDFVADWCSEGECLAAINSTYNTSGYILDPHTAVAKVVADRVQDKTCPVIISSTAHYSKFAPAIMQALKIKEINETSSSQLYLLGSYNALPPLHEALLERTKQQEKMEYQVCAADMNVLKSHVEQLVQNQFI
# UniProt Q9BTF0: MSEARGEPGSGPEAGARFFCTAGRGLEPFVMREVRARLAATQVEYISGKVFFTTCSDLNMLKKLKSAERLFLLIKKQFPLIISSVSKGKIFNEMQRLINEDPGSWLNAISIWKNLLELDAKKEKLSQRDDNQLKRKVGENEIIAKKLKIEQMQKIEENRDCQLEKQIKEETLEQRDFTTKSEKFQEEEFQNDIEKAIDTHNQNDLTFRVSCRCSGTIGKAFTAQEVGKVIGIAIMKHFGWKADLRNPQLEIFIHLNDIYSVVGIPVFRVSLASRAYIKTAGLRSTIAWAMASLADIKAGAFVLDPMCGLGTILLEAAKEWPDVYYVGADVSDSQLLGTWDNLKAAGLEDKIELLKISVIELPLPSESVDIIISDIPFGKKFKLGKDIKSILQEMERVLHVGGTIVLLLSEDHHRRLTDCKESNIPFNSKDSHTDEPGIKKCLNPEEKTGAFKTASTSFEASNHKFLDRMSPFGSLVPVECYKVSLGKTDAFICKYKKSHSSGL
# UniProt Q15814: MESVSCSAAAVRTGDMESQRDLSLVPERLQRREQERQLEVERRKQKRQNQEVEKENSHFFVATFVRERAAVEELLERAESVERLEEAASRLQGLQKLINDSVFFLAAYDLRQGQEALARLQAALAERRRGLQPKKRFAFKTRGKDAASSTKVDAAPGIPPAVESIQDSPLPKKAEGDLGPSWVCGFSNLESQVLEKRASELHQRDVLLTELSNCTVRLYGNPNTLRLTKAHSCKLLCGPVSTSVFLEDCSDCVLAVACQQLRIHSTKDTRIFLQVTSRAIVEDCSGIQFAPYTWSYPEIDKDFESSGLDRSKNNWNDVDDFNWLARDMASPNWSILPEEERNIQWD
# UniProt O75663: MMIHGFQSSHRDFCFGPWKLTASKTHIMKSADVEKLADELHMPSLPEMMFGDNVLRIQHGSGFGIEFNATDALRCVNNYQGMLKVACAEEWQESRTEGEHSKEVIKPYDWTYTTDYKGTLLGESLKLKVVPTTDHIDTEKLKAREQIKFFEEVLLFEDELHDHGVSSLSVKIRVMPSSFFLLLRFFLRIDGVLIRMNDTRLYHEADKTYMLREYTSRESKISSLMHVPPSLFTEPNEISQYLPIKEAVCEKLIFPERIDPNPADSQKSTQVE
# UniProt O43615: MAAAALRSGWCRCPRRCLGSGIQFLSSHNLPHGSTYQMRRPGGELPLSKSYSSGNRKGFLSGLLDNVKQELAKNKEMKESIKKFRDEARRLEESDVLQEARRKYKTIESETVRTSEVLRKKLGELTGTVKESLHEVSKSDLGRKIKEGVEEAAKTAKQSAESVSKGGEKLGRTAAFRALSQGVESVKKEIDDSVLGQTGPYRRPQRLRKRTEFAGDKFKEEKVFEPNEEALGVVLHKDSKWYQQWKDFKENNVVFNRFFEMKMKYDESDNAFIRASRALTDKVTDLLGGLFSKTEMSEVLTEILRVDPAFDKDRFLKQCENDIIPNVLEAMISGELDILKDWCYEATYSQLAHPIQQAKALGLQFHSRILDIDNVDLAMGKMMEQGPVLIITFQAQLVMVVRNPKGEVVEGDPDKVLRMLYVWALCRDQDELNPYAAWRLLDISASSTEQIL
# UniProt Q96MV1: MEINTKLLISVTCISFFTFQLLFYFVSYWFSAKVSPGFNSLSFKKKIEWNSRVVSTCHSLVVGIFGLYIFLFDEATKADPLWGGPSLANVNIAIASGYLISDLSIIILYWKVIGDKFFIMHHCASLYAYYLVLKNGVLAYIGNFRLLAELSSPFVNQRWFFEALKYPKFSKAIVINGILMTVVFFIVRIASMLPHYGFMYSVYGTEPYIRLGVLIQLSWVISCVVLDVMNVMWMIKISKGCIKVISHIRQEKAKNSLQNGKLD
# UniProt Q9Y4C2: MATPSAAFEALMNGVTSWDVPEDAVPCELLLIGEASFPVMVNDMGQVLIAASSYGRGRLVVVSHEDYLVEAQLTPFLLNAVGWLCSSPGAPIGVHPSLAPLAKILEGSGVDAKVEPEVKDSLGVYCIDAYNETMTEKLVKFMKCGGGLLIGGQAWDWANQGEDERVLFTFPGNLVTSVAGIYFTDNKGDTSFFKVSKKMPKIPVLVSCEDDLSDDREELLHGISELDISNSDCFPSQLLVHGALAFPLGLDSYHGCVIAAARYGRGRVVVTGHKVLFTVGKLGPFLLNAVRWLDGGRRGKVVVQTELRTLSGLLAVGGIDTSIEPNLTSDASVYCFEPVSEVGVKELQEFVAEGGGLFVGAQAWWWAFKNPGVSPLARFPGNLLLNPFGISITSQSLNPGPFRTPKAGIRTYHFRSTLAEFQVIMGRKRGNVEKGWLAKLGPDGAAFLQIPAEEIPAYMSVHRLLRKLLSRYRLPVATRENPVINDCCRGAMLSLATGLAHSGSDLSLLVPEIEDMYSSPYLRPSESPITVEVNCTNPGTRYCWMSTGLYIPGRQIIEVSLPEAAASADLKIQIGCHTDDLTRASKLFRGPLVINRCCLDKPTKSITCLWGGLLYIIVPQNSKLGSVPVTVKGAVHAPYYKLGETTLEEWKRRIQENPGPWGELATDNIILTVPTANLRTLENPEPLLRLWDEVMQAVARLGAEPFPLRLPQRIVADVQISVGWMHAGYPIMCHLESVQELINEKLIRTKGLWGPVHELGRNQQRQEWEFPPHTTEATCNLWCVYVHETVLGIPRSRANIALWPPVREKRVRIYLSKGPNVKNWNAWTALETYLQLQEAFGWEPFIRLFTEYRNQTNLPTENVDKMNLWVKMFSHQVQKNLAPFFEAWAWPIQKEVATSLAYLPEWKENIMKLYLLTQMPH
# UniProt Q8TEA7: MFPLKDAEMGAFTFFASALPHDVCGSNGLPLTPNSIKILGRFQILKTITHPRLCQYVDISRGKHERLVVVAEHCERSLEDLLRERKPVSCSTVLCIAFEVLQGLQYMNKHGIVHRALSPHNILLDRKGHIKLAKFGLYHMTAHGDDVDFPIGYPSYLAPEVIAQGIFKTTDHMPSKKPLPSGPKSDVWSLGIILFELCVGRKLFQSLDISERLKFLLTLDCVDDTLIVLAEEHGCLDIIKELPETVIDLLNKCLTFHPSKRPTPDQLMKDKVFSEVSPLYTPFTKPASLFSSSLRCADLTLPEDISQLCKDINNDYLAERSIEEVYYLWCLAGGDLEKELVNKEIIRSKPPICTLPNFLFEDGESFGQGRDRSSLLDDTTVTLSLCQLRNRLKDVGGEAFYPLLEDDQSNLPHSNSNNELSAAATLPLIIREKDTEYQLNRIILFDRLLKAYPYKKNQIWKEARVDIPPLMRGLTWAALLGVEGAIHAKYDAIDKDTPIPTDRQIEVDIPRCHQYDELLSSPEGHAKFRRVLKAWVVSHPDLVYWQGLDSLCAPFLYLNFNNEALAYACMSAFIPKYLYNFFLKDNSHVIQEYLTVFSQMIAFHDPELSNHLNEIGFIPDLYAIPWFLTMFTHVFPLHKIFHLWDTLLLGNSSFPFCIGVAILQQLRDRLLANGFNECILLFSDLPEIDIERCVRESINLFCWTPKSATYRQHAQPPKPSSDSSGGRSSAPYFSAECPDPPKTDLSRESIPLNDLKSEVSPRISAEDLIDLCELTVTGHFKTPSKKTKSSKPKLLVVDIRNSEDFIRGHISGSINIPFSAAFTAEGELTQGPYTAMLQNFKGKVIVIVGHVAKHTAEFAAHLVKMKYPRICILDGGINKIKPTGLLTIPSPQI
# The other results are listed elsewhere or left out. Residues, ends and D or L forms follow the SMILES beside them. *: point of attachment. Cbz = O=C(OCc1ccccc1)*
# What was measured:
# Test in all cases: log2 fold change, soluble protein after heating vs DMSO (PISA); higher = thermal stabilisation; K562 cells, 10 uM, 30 min; active = over 0.2 and 3.5 SD of the protein, either way, in both replicates (recomputed)
# [1] = compound: C#Cc1cccc(Nc2ncnc3cc(OCCOC)c(OCCOC)cc23)c1 [erlotinib]
# Procedure, shortened: (§1)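 Soluble protein was quantified by TMTpro 16plex LC-MS/MS after channel sums were equalised. It was obtained as the supernatant after 21,000xg for 90 min from pooled aliquots of K562 cells (2×10^6 cells/mL, 10 μM compound, 30 min) heated for 3 min across 48°C-58°C and extracted in PBS with 0.5% NP-40 at 4°C. Thermal stability values are relative to control samples and come from duplicates. They are given as log2 fold changes.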
# [2] = compound: C/C(=N\NC(=O)C1=CC(=CC=C1)S(=O)(=O)N2CCOCC2)/C3=C(C=CC(=C3)Cl)O
# Procedure, shortened: as §1
# [3] = compound: C1=CC(=C(C=C1Cl)C2=NC3=NC=CN=C3C(=N2)NC4=CC=NC=C4)F
# Procedure, shortened: as §1
# [4] = compound: C1=CC(=CC=C1C2=NC3=C(N2)C=C(C=C3)C(=O)N)OC4=CC=C(C=C4)Cl
# Procedure, shortened: as §1
# [5] = compound: C1=CC2=C(C=CC(=C2)/C=C\3/C(=O)NC(=NCC4=CC=CS4)S3)N=C1
# Procedure, shortened: as §1
# [6] = compound: C1=CC2=NC=CN=C2C=C1/C=C/3\C(=O)NC(=O)S3
# Procedure, shortened: as §1
# [7] = compound: C1=CC=C(C=C1)C2=NC(=C(N2)C3=CC=NC=C3)C4=CC(=C(C=C4)Cl)O
# Procedure, shortened: as §1
# [8] = compound: C1=CC=C2C(=C1)C3=NNC4=CC=CC(=C43)C2=O
# Procedure, shortened: as §1
# [9] = compound: C1CCN(C1)C(=O)NC2=CC=CC(=C2)NC3=NC=C(C(=N3)NCCC4=CN=CN4)Br
# Procedure, shortened: as §1
# [10] = compound: C1CN(CCC1(CC2=CC=C(C=C2)Cl)N)C3=NC=NC4=C3C=CN4
# Procedure, shortened: as §1
# [11] = compound: C1COCCN1CCN2C3=CC=CC=C3N=C2NC(=O)C4=CC(=CC=C4)[N+](=O)[O-] [IRAK-1-4 Inhibitor I]
# Procedure, shortened: as §1
# [12] = compound: C=CC(=O)N1CCC[C@@H](n2nc(-c3ccc(Oc4ccccc4)cc3)c3c(N)ncnc32)C1 [ibrutinib]
# Procedure, shortened: as §1
# [13] = compound: CC(=O)c1cnc2ccc(-c3cc(Cl)c(O)c(Cl)c3)nc2c1N[C@H]1CC[C@H](CN(C)C)CC1
# Procedure, shortened: as §1
# [14] = compound: CC(C)(C)Cn1c(N)nc2ccc(-c3[nH]c(C(C)(C)C)nc3-c3ccc(F)cc3)nc21 [ralimetinib]
# Procedure, shortened: as §1
# [15] = compound: CC(C)(O)CC(=O)NCCn1ccc2ncnc(Nc3ccc(Oc4cccc(C(F)(F)F)c4)c(Cl)c3)c21
# Procedure, shortened: as §1
# [16] = compound: CC(C)C1=C2N=C(C=C(N2N=C1)NCC3=CC=CC=C3)NCCCCCCN
# Procedure, shortened: as §1
# [17] = compound: CC(C)C[C@@H](C=O)NC(=O)[C@H](CC(C)C)NC(=O)[C@H](CC(C)C)NC(=O)OCc1ccccc1
# Procedure, shortened: as §1
# [18] = compound: CC(C)N(C[C@H]1O[C@@H](n2cnc3c(N)ncnc32)[C@H](O)[C@@H]1O)[C@H]1C[C@@H](CCc2nc3cc(C(C)(C)C)ccc3[nH]2)C1 [pinometostat]
# Procedure, shortened: as §1
# [19] = compound: CC1=C(C(CC(=O)N1)C2=CC=C(C=C2)C(F)(F)F)C(=O)NC3=C(C=C4C(=C3)C=NN4)F
# Procedure, shortened: as §1
# [20] = compound: CC1=C(C2=C(C=C1)C(=O)C3=CC=CC=C3N2CCCN)C
# Procedure, shortened: as §1
Target,log2 fold change [1],log2 fold change [2],log2 fold change [3],log2 fold change [4],log2 fold change [5],log2 fold change [6],log2 fold change [7],log2 fold change [8],log2 fold change [9],log2 fold change [10],log2 fold change [11],log2 fold change [12],log2 fold change [13],log2 fold change [14],log2 fold change [15],log2 fold change [16],log2 fold change [17],log2 fold change [18],log2 fold change [19],log2 fold change [20]
TKT isoform 2 (UniProt P29401),inactive: 0.01,inactive: 0.004,inactive: 0.029,inactive: -0.012,inactive: -0.033,inactive: -0.004,inactive: -0.046,inactive: 0.011,inactive: -0.004,inactive: 0.059,inactive: 0.035,inactive: -0.04,inactive: 0.002,inactive: -0.026,inactive: 0.008,inactive: 0.091,inactive: 0.005,inactive: -0.056,inactive: 0.018,inactive: 0.005
TFAM (UniProt Q00059),inactive: -0.085,inactive: -0.071,inactive: -0.127,inactive: 0.031,inactive: -0.009,inactive: -0.022,inactive: -0.068,inactive: -0.05,inactive: 0.06,inactive: -0.078,inactive: -0.047,inactive: 0.03,inactive: 0.07,inactive: 0.044,inactive: 0.043,inactive: 0.007,inactive: 0.056,inactive: 0.05,–,active: -0.414
THEM4 (UniProt Q5T1C6),inactive: -0.013,inactive: 0.019,inactive: 0.039,inactive: -0.03,inactive: -0.009,inactive: -0.001,inactive: -0.001,inactive: -0.023,inactive: 0.033,inactive: 0.026,inactive: 0.03,inactive: 0.036,inactive: 0.047,inactive: -0.044,inactive: 0.004,inactive: 0.009,inactive: 0.023,inactive: -0.076,inactive: 0.016,inactive: 0.004
THOC2 (UniProt Q8NI27),inactive: -0.019,inactive: 0.016,inactive: -0.137,inactive: -0.008,inactive: -0.061,inactive: 0.027,inactive: -0.039,inactive: -0.035,inactive: -0.019,inactive: -0.043,inactive: -0.085,inactive: -0.043,inactive: -0.012,inactive: 0.078,inactive: -0.052,inactive: -0.144,inactive: 0.072,inactive: 0.162,inactive: -0.031,inactive: 0.156
TGS1 (UniProt Q96RS0),inactive: 0.007,inactive: 0.084,inactive: 0.006,inactive: -0.005,inactive: 0.099,inactive: -0.063,inactive: -0.03,inactive: -0.028,inactive: -0.235,inactive: -0.026,inactive: -0.103,inactive: -0.084,inactive: -0.12,inactive: 0.009,inactive: 0.07,inactive: -0.214,inactive: -0.029,inactive: 0.297,inactive: -0.028,inactive: 0.011
TIMM50 isoform 2 (UniProt Q3ZCQ8),inactive: 0.016,inactive: 0.007,inactive: 0.026,inactive: 0.014,inactive: -0.001,inactive: 0.001,inactive: -0.016,inactive: 0.005,inactive: 0.02,inactive: 0.074,inactive: 0.036,inactive: 0.005,inactive: -0.058,inactive: -0.074,inactive: -0.091,inactive: -0.014,inactive: -0.041,inactive: -0.023,inactive: -0.021,inactive: 0.032
THNSL1 (UniProt Q8IYQ7),inactive: 0.051,inactive: 0.088,inactive: 0.062,inactive: 0.058,inactive: -0.02,inactive: -0.007,inactive: 0.017,inactive: -0.016,inactive: -0.046,inactive: 0.077,inactive: 0.033,inactive: -0.04,inactive: -0.032,inactive: -0.038,inactive: -0.074,inactive: -0.059,inactive: -0.012,inactive: -0.003,inactive: -0.052,inactive: -0.003
THUMPD2 (UniProt Q9BTF0),inactive: -0.006,inactive: 0.018,inactive: -0.04,inactive: 0.034,inactive: -0.04,inactive: 0.003,inactive: 0.019,inactive: -0.044,inactive: 0.012,inactive: 0.021,inactive: -0.029,inactive: 0.096,inactive: 0.023,inactive: -0.002,inactive: 0.057,inactive: 0.072,inactive: -0.009,inactive: -0.007,inactive: -0.119,inactive: 0.065
TBCC (UniProt Q15814),inactive: 0.015,inactive: 0.051,inactive: 0.048,inactive: 0.025,inactive: 0,inactive: 0.006,inactive: 0.001,inactive: 0.015,inactive: -0.014,inactive: -0.001,inactive: 0.045,inactive: -0.029,inactive: 0.013,inactive: -0.022,inactive: 0,inactive: -0.042,inactive: -0.004,inactive: -0.016,inactive: -0.029,inactive: 0.015
TIPRL (UniProt O75663),inactive: 0.055,inactive: 0.097,inactive: 0.031,inactive: 0.009,inactive: 0.049,inactive: 0.036,inactive: -0.002,inactive: 0.03,inactive: 0.021,inactive: -0.041,inactive: -0.011,inactive: -0.005,inactive: -0.067,inactive: -0.007,inactive: -0.065,inactive: -0.173,inactive: 0.048,inactive: -0.015,–,inactive: 0.017
TIMM44 (UniProt O43615),inactive: -0.012,inactive: 0.026,inactive: 0.054,inactive: -0.007,inactive: 0.024,inactive: 0.041,inactive: 0.042,inactive: 0.012,inactive: 0.028,inactive: -0.029,inactive: 0.066,inactive: -0.061,inactive: -0.065,inactive: -0.039,inactive: -0.171,active: -0.399,inactive: 0.006,inactive: -0.004,–,inactive: 0.022
TLCD4 (UniProt Q96MV1),inactive: -0.043,inactive: 0.018,inactive: 0,inactive: 0.004,inactive: 0.009,inactive: -0.003,inactive: 0.066,inactive: 0.021,inactive: -0.088,inactive: 0.092,inactive: -0.017,inactive: 0.012,inactive: -0.013,inactive: 0.029,inactive: -0.012,inactive: 0.063,inactive: -0.079,inactive: -0.085,inactive: -0.043,inactive: -0.002
THEM6 (UniProt Q8WUY1),inactive: 0.013,inactive: 0.081,inactive: 0.016,inactive: 0.009,inactive: -0.015,inactive: 0.079,inactive: -0.005,inactive: 0.002,inactive: -0.187,inactive: 0.059,inactive: 0.065,inactive: 0.023,inactive: -0.012,inactive: -0.024,inactive: 0.058,inactive: -0.068,inactive: -0.054,inactive: -0.042,inactive: 0.057,inactive: 0.068
TDRKH (UniProt Q9Y2W6),inactive: 0.019,inactive: 0.033,inactive: -0.165,inactive: 0.019,inactive: 0.017,inactive: -0.069,inactive: 0.098,inactive: 0.085,inactive: -0.091,inactive: -0.059,inactive: 0.032,inactive: -0.063,inactive: -0.054,inactive: 0.074,inactive: 0.003,inactive: -0.1,inactive: 0.104,inactive: 0.016,inactive: -0.027,inactive: 0.049
TCAF1 (UniProt Q9Y4C2),inactive: 0.029,inactive: 0.076,inactive: -0.036,inactive: 0.027,inactive: 0.107,inactive: 0.004,inactive: 0.027,inactive: 0.037,inactive: 0,inactive: -0.002,inactive: -0.035,inactive: 0.026,inactive: -0.04,inactive: 0.09,inactive: -0.085,inactive: -0.085,inactive: 0.077,inactive: 0.07,inactive: 0.008,inactive: 0.018
TBCK (UniProt Q8TEA7),inactive: 0.101,inactive: 0.059,–,inactive: 0.082,inactive: 0.151,–,–,inactive: -0.248,inactive: 0.012,inactive: 0.027,inactive: 0.009,–,inactive: -0.078,–,–,inactive: -0.052,–,inactive: 0.2,inactive: -0.051,inactive: 0.218

# Whole records from above. Order of values: log2 fold change [1]	log2 fold change [2]	log2 fold change [3]	log2 fold change [4]	log2 fold change [5]	log2 fold change [6]	log2 fold change [7]	log2 fold change [8]	log2 fold change [9]	log2 fold change [10]	log2 fold change [11]	log2 fold change [12]	log2 fold change [13]	log2 fold change [14]	log2 fold change [15]	log2 fold change [16]	log2 fold change [17]	log2 fold change [18]	log2 fold change [19]	log2 fold change [20]
# TBCC (UniProt Q15814) reads inactive: 0.015	inactive: 0.051	inactive: 0.048	inactive: 0.025	inactive: 0	inactive: 0.006	inactive: 0.001	inactive: 0.015	inactive: -0.014	inactive: -0.001	inactive: 0.045	inactive: -0.029	inactive: 0.013	inactive: -0.022	inactive: 0	inactive: -0.042	inactive: -0.004	inactive: -0.016	inactive: -0.029	inactive: 0.015
# THEM6 (UniProt Q8WUY1) reads inactive: 0.013	inactive: 0.081	inactive: 0.016	inactive: 0.009	inactive: -0.015	inactive: 0.079	inactive: -0.005	inactive: 0.002	inactive: -0.187	inactive: 0.059	inactive: 0.065	inactive: 0.023	inactive: -0.012	inactive: -0.024	inactive: 0.058	inactive: -0.068	inactive: -0.054	inactive: -0.042	inactive: 0.057	inactive: 0.068
